No constants are given. Whether binding was seen depends on the method and setting. In cells and extracts the contact can be indirect. Binding calls can cover weak binding; strength is not graded here.
Experiments:
[1] = target: Sirtuin 3 (Sirt3) (human (endogenous in AGS)); assay: co-IP; endogenous proteins; cell lysate immunoprecipitated with anti-Sirt3 antibody 12 h at 4 °C, A/G beads, IgG as control, Western blot; cell line not stated (Fig. 2G-H)
[2] = target: Sirtuin 3 (Sirt3) (human (endogenous in AGS)); assay: co-IP; endogenous proteins in AGS cells (Fig. S3H-I); immunoprecipitation, A/G beads, Western blot

binding [1]: binds
binding [2]: binds
B1: Lon protease-1 (LONP1) (enzyme, UniProt P36776 68-959)
chain: FWEASSRGGGAFSGGEDASEGGAEEGAGGAGGSAGAGEGPVITALTPMTIPDVFPHLPLIAITRNPVFPRFIKIIEVKNKKLVELLRRKVRLAQPYVGVFLKRDDSNESDVVESLDEIYHTGTFAQIHEMQDLGDKLRMIVMGHRRVHISRQLEVEPEEPEAENKHKPRRKSKRGKKEAEDELSARHPAELAMEPTPELPAEVLMVEVENVVHEDFQVTEEVKALTAEIVKTIRDIIALNPLYRESVLQMMQAGQRVVDNPIYLSDMGAALTGAESHELQDVLEETNIPKRLYKALSLLKKEFELSKLQQRLGREVEEKIKQTHRKYLLQEQLKIIKKELGLEKDDKDAIEEKFRERLKELVVPKHVMDVVDEELSKLGLLDNHSSEFNVTRNYLDWLTSIPWGKYSNENLDLARAQAVLEEDHYGMEDVKKRILEFIAVSQLRGSTQGKILCFYGPPGVGKTSIARSIARALNREYFRFSVGGMTDVAEIKGHRRTYVGAMPGKIIQCLKKTKTENPLILIDEVDKIGRGYQGDPSSALLELLDPEQNANFLDHYLDVPVDLSKVLFICTANVTDTIPEPLRDRMEMINVSGYVAQEKLAIAERYLVPQARALCGLDESKAKLSSDVLTLLIKQYCRESGVRNLQKQVEKVLRKSAYKIVSGEAESVEVTPENLQDFVGKPVFTVERMYDVTPPGVVMGLAWTAMGGSTLFVETSLRRPQDKDAKGDKDGSLEVTGQLGEVMKESARIAYTFARAFLMQHAPANDYLVTSHIHLHVPEGATPKDGPSAGCTIVTALLSLAMGRPVRQNLAMTGEVSLTGKILPVGGIKEKTIAAKRAGVTCIVLPAENKKDFYDLAAFITEGLEVHFVEHYREIFDIAFPDEQAEALAVER

— article PMC9899405
